Measured values as given in patent publication EP2073012A1, “Method for the isolation and identification of ADP-ribosylated molecules” (Fondazione Telethon, priority 2007, dated 2009).
These are yes or no findings as the source states them, for the method shown. Binding seen in cells or lysates may run through a third protein. Some entries that bind do so weakly or less than the wild type. Sequences can lack the tags named with a protein.

Sequences of proteins named here, by UniProt entry; tags and fusion partners are left off. Residues count along the entry.
UniProt G3I8R9, residues 19-654: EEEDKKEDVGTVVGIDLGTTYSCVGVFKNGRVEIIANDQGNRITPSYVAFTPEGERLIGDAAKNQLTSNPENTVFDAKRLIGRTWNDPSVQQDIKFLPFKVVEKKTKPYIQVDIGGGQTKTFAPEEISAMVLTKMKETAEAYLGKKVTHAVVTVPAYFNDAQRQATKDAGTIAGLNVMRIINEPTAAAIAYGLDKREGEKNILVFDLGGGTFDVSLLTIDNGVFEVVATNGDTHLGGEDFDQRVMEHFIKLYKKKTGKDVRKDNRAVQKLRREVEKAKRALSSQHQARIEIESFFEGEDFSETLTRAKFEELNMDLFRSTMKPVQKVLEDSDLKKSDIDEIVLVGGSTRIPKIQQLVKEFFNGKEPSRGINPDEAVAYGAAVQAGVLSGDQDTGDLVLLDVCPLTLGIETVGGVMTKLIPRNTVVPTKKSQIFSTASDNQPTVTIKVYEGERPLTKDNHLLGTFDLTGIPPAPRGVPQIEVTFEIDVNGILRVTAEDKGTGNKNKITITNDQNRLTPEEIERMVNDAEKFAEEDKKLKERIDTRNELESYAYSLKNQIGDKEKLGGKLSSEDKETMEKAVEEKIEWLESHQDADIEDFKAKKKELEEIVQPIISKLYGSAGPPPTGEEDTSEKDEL
UniProt P62629, residues 2-462: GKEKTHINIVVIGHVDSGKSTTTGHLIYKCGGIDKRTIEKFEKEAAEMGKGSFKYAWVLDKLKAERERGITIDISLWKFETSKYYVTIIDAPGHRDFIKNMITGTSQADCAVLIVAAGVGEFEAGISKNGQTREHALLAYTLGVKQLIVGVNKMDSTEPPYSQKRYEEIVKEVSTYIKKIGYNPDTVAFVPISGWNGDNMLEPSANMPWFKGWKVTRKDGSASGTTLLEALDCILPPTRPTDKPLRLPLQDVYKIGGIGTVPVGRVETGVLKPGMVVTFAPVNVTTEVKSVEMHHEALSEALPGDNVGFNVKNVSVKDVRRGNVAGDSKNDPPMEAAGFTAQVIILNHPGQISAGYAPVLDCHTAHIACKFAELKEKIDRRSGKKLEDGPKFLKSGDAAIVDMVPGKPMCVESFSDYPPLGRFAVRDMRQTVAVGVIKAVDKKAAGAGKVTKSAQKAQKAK

T1: SLC25A5, PT-ADP-ribosylated, from HL60 cell membranes (UniProt P05141)
T1 sequence (chain, ADP-ribosylated by pertussis toxin; position not printed): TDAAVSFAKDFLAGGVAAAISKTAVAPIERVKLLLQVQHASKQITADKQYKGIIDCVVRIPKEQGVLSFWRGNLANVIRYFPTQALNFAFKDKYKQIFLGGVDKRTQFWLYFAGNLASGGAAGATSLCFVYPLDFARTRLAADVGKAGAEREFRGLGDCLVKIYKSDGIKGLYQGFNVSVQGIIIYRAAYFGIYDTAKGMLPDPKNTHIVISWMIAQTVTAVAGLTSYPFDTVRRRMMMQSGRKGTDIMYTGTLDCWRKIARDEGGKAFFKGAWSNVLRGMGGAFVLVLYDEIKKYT

B1: recombinant, N-terminus, His-tagged, full-length Af1521 wild-type (protein, not shown: small tags and cut ends)
chain: MEVLFEAKVGDITLKLAQGDITQYPAKAIVNAANKRLEHGGGVAYAIAKACAGDAGLYTEISKKAMREQFGRDYIDHGEVVVTPAMNLEERGIKYVFHTVGPICSGMWSEELKEKLYKAFLGPLEKAEEMGVESIAFPAVSAGIYGCDLEKVVETFLEAVKNFKGSAVKEVALVIYDRKSAEVALKVFERSL
B2: GST-tagged Af1521 wild-type (protein, not shown: a dimerising Fc or GST)
chain: B1 chain

What was measured:
[1] = molecular target: GRP78/BiP, endogenously ADP-ribosylated, from CHO cells (Chinese hamster) (UniProt G3I8R9); test: two-step pull-down (G42E mutant, then wild-type His6-mAf1521) from CHO post-nuclear fraction, silver staining, MALDI-TOF-MS
[2] = molecular target: elongation factor α1/2, endogenously ADP-ribosylated, from CHO cells (Chinese hamster) (UniProt P62629); test: as above
[3] = molecular target: GRP78/BiP, endogenously ADP-ribosylated, from CHO cells (Chinese hamster) (UniProt G3I8R9); test: pull-down, MALDI-TOF-MS
[4] = molecular target: T1, SLC25A5, PT-ADP-ribosylated, from HL60 cell membranes; test: macro-domain pull-down from HL60 cell membranes, procedure parallel to CHO (data not shown)

Binder	binding [1]	binding [2]	binding [3]	binding [4]
B1	binds	binds	binds	
B2				binds
